Source: paper PMC12083247
Results are given in words; binding and its absence hold for the method and conditions named. For some of these results: Binding seen in cells or lysates may run through a third protein. Some entries that bind do so weakly or less than the wild type.

The chains behind the UniProt entries cited, without tags or fusion partners. Where a name states a change or a piece, a line headed by the entry shows the natural chain unless it says otherwise. Residues count along the entry.
UniProt P07355: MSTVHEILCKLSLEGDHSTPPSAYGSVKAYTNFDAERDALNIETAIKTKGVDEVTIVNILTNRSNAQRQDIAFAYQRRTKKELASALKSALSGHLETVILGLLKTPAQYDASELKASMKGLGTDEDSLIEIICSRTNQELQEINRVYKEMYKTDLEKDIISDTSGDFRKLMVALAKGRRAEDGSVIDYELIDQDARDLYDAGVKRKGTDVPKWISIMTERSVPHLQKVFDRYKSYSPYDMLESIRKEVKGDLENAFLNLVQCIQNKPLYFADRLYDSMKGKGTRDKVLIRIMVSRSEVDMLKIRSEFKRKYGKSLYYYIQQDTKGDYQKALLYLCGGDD
ANXA2(18-339)-HA: residues 18-339 of P07355
porcine calpain-1–treated annexin A2-HaloTag: residues 19-339 of P07355
UniProt P07384: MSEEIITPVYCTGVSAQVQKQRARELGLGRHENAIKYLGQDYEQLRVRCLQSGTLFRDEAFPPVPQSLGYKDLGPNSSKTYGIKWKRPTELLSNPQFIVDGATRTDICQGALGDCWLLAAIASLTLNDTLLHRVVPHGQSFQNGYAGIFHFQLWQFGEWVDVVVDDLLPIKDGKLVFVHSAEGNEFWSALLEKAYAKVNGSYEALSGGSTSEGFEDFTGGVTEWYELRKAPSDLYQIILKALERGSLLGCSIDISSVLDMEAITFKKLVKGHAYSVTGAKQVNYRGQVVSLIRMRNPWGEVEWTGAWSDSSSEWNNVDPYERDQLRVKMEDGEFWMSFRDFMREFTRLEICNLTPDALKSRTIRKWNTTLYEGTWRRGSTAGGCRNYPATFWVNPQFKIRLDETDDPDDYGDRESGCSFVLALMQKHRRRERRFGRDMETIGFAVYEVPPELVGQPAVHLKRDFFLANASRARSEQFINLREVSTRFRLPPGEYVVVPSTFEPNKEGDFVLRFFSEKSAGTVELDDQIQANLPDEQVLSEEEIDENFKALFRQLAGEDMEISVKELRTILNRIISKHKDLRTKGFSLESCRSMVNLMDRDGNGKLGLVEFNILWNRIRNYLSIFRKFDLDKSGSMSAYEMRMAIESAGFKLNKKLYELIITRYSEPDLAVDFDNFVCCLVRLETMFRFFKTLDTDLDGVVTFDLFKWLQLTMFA
UniProt P60903: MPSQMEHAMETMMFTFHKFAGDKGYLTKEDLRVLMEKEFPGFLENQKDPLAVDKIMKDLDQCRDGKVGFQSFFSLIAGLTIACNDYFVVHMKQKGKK

What was measured:
annexin A2-HaloTag = annexin A2-HaloTag (UniProt P07355); assay: pull-down; HaloTag bait on chloroalkane-coated beads; Sypro Ruby total protein stain and gel excision-mass spectrometry; source of the prey not stated; only the target purified
[1] = biological target: porcine calpain-1–treated annexin A2-HaloTag (UniProt P07355); assay: as above
ANXA2(18-339)-HA = ANXA2(18-339)-HA (UniProt P07355); assay: co-IP; anti-HA immunoprecipitation from lysates of HCT116 cells expressing HA-tagged annexin A2 constructs; immunoblot
WT ANXA2-HA = WT ANXA2-HA (UniProt P07355); assay: as above
ANXA2[P20D, P21D]-HA = ANXA2[P20D, P21D]-HA (UniProt P07355); assay: as above
[2] = biological target: annexin A2 (untagged, recombinant) (UniProt P07355); assay: SEC; E. coli lysates of ANXA2 and S100A10 mixed 1:1, 2 mM CaCl2, co-purified by pelleting with membranes and ATP elution, then Superdex-200 in TBS
[3] = biological target: CAPN1[C115S]-3xFlag-6xHis in complex with CAPNS1(86–268) (UniProt P07384); assay: pull-down; same substrate trapping; bound proteins eluted with TBS + 5 mM EGTA, then SDS (Laemmli) elution; immunoblot; only the target purified
[4] = biological target: CAPN1[C115S]-3xFlag-6xHis in complex with CAPNS1(86–268) (UniProt P07384); assay: pull-down; substrate trapping: 3xFlag baits (6 μM) on anti-Flag agarose; HCT116 cytosol with 2 mM CaCl2 and E64, 2 h at 4°C; washes TBS + 1 mM CaCl2 + 0.01% Tween-20; immunoblot of elutions; only the target purified
[5] = biological target: CAPN1[C115S]-3xFlag-6xHis (human) (UniProt P07384); assay: pull-down; His-tag purification (HisPure beads, TBS, 300 mM imidazole elution) of large subunit coexpressed with CAPNS1(86–268) in E. coli; Coomassie gel

S100A10 (from UniProt P60903 1-97)
binding (annexin A2-HaloTag): binds | binding [1]: no binding | binding (ANXA2(18-339)-HA): no binding | binding (WT ANXA2-HA): binds | binding (ANXA2[P20D, P21D]-HA): binds

S100A10 (recombinant) (from UniProt P60903 1-97)
binding [2]: binds

annexin A2 (from UniProt P07355 1-339)
binding [1]: no binding

B1: annexin A6 (protein, UniProt P08133 1-673)
chain: MAKPAQGAKYRGSIHDFPGFDPNQDAEALYTAMKGFGSDKEAILDIITSRSNRQRQEVCQSYKSLYGKDLIADLKYELTGKFERLIVGLMRPPAYCDAKEIKDAISGIGTDEKCLIEILASRTNEQMHQLVAAYKDAYERDLEADIIGDTSGHFQKMLVVLLQGTREEDDVVSEDLVQQDVQDLYEAGELKWGTDEAQFIYILGNRSKQHLRLVFDEYLKTTGKPIEASIRGELSGDFEKLMLAVVKCIRSTPEYFAERLFKAMKGLGTRDNTLIRIMVSRSELDMLDIREIFRTKYEKSLYSMIKNDTSGEYKKTLLKLSGGDDDAAGQFFPEAAQVAYQMWELSAVARVELKGTVRPANDFNPDADAKALRKAMKGLGTDEDTIIDIITHRSNVQRQQIRQTFKSHFGRDLMTDLKSEISGDLARLILGLMMPPAHYDAKQLKKAMEGAGTDEKALIEILATRTNAEIRAINEAYKEDYHKSLEDALSSDTSGHFRRILISLATGHREEGGENLDQAREDAQVAAEILEIADTPSGDKTSLETRFMTILCTRSYPHLRRVFQEFIKMTNYDVEHTIKKEMSGDVRDAFVAIVQSVKNKPLFFADKLYKSMKGAGTDEKTLTRIMVSRSEIDLLNIRREFIEKYDKSLHQAIEGDTSGDFLKALLALCGGED
binding [3]: no binding (condition: with 5 mM EGTA) | binding [4]: binds

B2: CAPNS1(86–268) (domain or fragment, UniProt P04632 86-268)
chain: HYSNIEANESEEVRQFRRLFAQLAGDDMEVSATELMNILNKVVTRHPDLKTDGFGIDTCRSMVAVMDSDTTGKLGFEEFKYLWNNIKRWQAIYKQFDTDRSGTICSSELPGAFEAAGFHLNEHLYNMIIRRYSDESGNMDFDNFISCLVRLDAMFRAFKSLDKDGTGQIQVNIQEWLQLTMYS
binding [5]: binds
